Patent US20200231645A1 (Novo Nordisk, published 2020)

Chains of the proteins cited; added tags and fusions are not shown. Residues count along the entry.
UniProt P43220, 24-463: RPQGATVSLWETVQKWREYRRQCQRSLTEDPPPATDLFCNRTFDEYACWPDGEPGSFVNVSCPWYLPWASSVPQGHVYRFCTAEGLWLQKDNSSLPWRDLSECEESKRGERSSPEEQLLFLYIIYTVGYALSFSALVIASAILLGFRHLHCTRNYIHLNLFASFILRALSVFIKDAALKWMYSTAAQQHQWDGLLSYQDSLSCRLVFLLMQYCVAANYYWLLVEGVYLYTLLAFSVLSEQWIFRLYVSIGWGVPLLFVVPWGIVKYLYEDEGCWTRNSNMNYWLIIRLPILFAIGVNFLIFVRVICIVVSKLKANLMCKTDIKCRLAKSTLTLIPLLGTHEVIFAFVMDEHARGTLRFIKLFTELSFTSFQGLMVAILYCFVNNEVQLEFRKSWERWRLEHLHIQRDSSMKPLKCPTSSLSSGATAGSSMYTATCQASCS

Assays:
human GLP-1 receptor [1] = molecular target: human GLP-1 receptor (human, UniProt P43220 24-463); experiment: cell-based or functional assay
human GLP-1 receptor [2] = molecular target: T1, human GLP-1 receptor (human, UniProt P43220 24-463); experiment: 125I-GLP-1(7-36)NH2 displacement, hGLP-1R membranes, SPA, low HSA
T1 construct: whole, on cells; Isolated cell membranes, not intact cells, stood in the assay

B1: GLP-1/EGF(A) compound #28 (peptide)
peptide: HGEGTFTSDVSSYLEGQAAKEFIAWLVRGRGGQAPGQAPGTNECLDNLGGCSHVCRDLEIGYECLCPEGFQLVAQRRCE
modifications: substituent #6 on 26K of SEQ ID NO. 140
With B1 the “EC50 (pM) 0% HSA” value (human GLP-1 receptor [1]) was 203 pM and the “EC50 (pM) 1% HSA” value (human GLP-1 receptor [1]) was 4060 pM.

B2: GLP-1/EGF(A) compound #28 (peptide)
chain: HGEGTFTSDVSSYLEGQAAKEFIAWLVRGRGGQAPGQAPGTNECLDNLGGCSHVCRDLEIGYECLCPEGFQLVAQRRCE
modifications: substituent #6 (C20 diacid-Trx-gGlu-Ado-Ado) on 26K of SEQ ID NO. 140
B2 gave an IC50 (human GLP-1 receptor [2]) of 29.4 nM.

B3: GLP-1/EGF(A) compound #34 (peptide)
peptide: HWEGTFTSDVSSYLEGQAAKEFIAWLVRGRGGQAPGQAPGTNECLDNLGGCSHVCRDLEIGYECLCPEGFQLVAQRRCE
modifications: substituent #6 on 26K of SEQ ID NO. 141
In the case of B3, the “EC50 (pM) 0% HSA” value (human GLP-1 receptor [1]) is reported as 111 pM and the “EC50 (pM) 1% HSA” value (human GLP-1 receptor [1]) is reported as 2160 pM.
